# Source: the supplement of paper PMC8728848
# The list shows a part of the results.
# How the values were obtained:
# Assay in all cases: glycan array binding signal (z-score within array); higher = stronger binding
# Conditions in all cases: glycan notation: IUPAC condensed, linker removed
# [1] = target: Neu5Ac(a2-6)Gal(b1-4)GlcNAc(b1-2)Man(a1-3)[Neu5Ac(a2-3)Gal(b1-4)GlcNAc(b1-2)Man(a1-6)]Man(b1-4)GlcNAc(b1-4)GlcNAc
# Procedure, shortened: (§1)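 The Consortium for Functional Glycomics database supplied 3228 glycan arrays, of which those lacking an available protein sequence were dropped. The binding signal, a within-array Z-score, was averaged across arrays of the same protein sequence and across linkers. Negative scores can be read as non-binding.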
# [2] = target: Neu5Ac(a2-6)Gal(b1-4)GlcNAc(b1-2)Man(a1-3)[Neu5Ac(a2-6)Gal(b1-4)GlcNAc(b1-2)Man(a1-6)]Man(b1-4)GlcNAc(b1-4)GlcNAc
# Procedure, shortened: as §1
# [3] = target: Neu5Ac(a2-6)Gal(b1-4)GlcNAc(b1-2)Man(a1-3)[Neu5Ac(a2-6)Gal(b1-4)GlcNAc(b1-2)Man(a1-6)]Man(b1-4)GlcNAc(b1-4)[Fuc(a1-6)]GlcNAc
# Procedure, shortened: as §1
# [4] = target: Neu5Ac(a2-6)Gal(b1-4)GlcNAc(b1-2)Man(a1-6)Man(b1-4)GlcNAc(b1-4)GlcNAc
# Procedure, shortened: as §1
# [5] = target: Neu5Ac(a2-6)Gal(b1-4)GlcNAc(b1-2)Man(a1-6)[Gal(b1-4)GlcNAc(b1-2)Man(a1-3)]Man(b1-4)GlcNAc(b1-4)GlcNAc
# Procedure, shortened: as §1
# [6] = target: Neu5Ac(a2-6)Gal(b1-4)GlcNAc(b1-2)Man(a1-6)[GlcNAc(b1-2)Man(a1-3)]Man(b1-4)GlcNAc(b1-4)GlcNAc
# Procedure, shortened: as §1
# [7] = target: Neu5Ac(a2-6)Gal(b1-4)GlcNAc(b1-2)Man(a1-6)[Man(a1-3)]Man(b1-4)GlcNAc(b1-4)GlcNAc
# Procedure, shortened: as §1
# [8] = target: Neu5Ac(a2-6)Gal(b1-4)GlcNAc(b1-2)[Neu5Ac(a2-6)Gal(b1-4)GlcNAc(b1-4)]Man(a1-3)[GlcNAc(b1-4)][Neu5Ac(a2-6)Gal(b1-4)GlcNAc(b1-2)[Neu5Ac(a2-6)Gal(b1-4)GlcNAc(b1-6)]Man(a1-6)]Man(b1-4)GlcNAc(b1-4)GlcNAc
# Procedure, shortened: as §1
# [9] = target: Neu5Ac(a2-6)Gal(b1-4)GlcNAc(b1-2)[Neu5Ac(a2-6)Gal(b1-4)GlcNAc(b1-4)]Man(a1-3)[GlcNAc(b1-4)][Neu5Ac(a2-6)Gal(b1-4)GlcNAc(b1-4)Man(a1-6)]Man(b1-4)GlcNAc(b1-4)GlcNAc
# Procedure, shortened: as §1
# [10] = target: Neu5Ac(a2-6)Gal(b1-4)GlcNAc(b1-2)[Neu5Ac(a2-6)Gal(b1-4)GlcNAc(b1-6)]Man(a1-6)[Neu5Ac(a2-6)Gal(b1-4)GlcNAc(b1-2)Man(a1-3)][GlcNAc(b1-4)]Man(b1-4)GlcNAc(b1-4)GlcNAc
# Procedure, shortened: as §1
# [11] = target: Neu5Ac(a2-6)Gal(b1-4)GlcNAc(b1-3)Gal(b1-3)GlcNAc
# Procedure, shortened: as §1
# [12] = target: Neu5Ac(a2-6)Gal(b1-4)GlcNAc(b1-3)Gal(b1-4)GlcNAc
# Procedure, shortened: as §1
# [13] = target: Neu5Ac(a2-6)Gal(b1-4)GlcNAc(b1-3)Gal(b1-4)GlcNAc(b1-2)Man(a1-3)[Neu5Ac(a2-6)Gal(b1-4)GlcNAc(b1-3)Gal(b1-4)GlcNAc(b1-2)Man(a1-6)]GalNAc
# Procedure, shortened: as §1
# [14] = target: Neu5Ac(a2-6)Gal(b1-4)GlcNAc(b1-3)Gal(b1-4)GlcNAc(b1-3)Gal(b1-4)GlcNAc
# Procedure, shortened: as §1
# [15] = target: Neu5Ac(a2-6)Gal(b1-4)GlcNAc(b1-3)Gal(b1-4)GlcNAc(b1-3)Gal(b1-4)GlcNAc(b1-2)Man(a1-3)[Neu5Ac(a2-6)Gal(b1-4)GlcNAc(b1-3)Gal(b1-4)GlcNAc(b1-3)Gal(b1-4)GlcNAc(b1-2)Man(a1-6)]GalNAc
# Procedure, shortened: as §1
# [16] = target: Neu5Ac(a2-6)Gal(b1-4)GlcNAc(b1-3)Gal(b1-4)GlcNAc(b1-3)GalNAc
# Procedure, shortened: as §1
# [17] = target: Neu5Ac(a2-6)Gal(b1-4)GlcNAc(b1-3)Gal(b1-4)GlcNAc(b1-3)[Neu5Ac(a2-6)Gal(b1-4)GlcNAc(b1-3)Gal(b1-4)GlcNAc(b1-6)]GalNAc
# Procedure, shortened: as §1
# [18] = target: Neu5Ac(a2-6)Gal(b1-4)GlcNAc(b1-3)Gal(b1-4)GlcNAc(b1-6)[Gal(b1-3)]GalNAc
# Procedure, shortened: as §1
# [19] = target: Neu5Ac(a2-6)Gal(b1-4)GlcNAc(b1-3)Gal(b1-4)[Fuc(a1-3)]GlcNAc(b1-3)Gal(b1-4)[Fuc(a1-3)]GlcNAc
# Procedure, shortened: as §1
# [20] = target: Neu5Ac(a2-6)Gal(b1-4)GlcNAc(b1-3)GalNAc
# Procedure, shortened: as §1
# [21] = target: Neu5Ac(a2-6)Gal(b1-4)GlcNAc(b1-3)[Neu5Ac(a2-6)Gal(b1-4)GlcNAc(b1-6)]GalNAc
# Procedure, shortened: as §1
# [22] = target: Neu5Ac(a2-6)Gal(b1-4)GlcNAc(b1-6)GalNAc
# Procedure, shortened: as §1
# [23] = target: Neu5Ac(a2-6)Gal(b1-4)GlcNAc(b1-6)[Gal(b1-3)GlcNAc(b1-3)]Gal(b1-4)Glc
# Procedure, shortened: as §1
# [24] = target: Neu5Ac(a2-6)Gal(b1-4)GlcNAc(b1-6)[Gal(b1-3)]GalNAc
# Procedure, shortened: as §1
# [25] = target: Neu5Ac(a2-6)Gal(b1-4)GlcNAc6S
# Procedure, shortened: as §1
# Neu5Ac(a2-6)GalNAc = target: Neu5Ac(a2-6)GalNAc
# Procedure, shortened: as §1
# [26] = target: Neu5Ac(a2-6)GalNAc(b1-4)GlcNAc
# Procedure, shortened: as §1
# [27] = target: Neu5Ac(a2-6)GalNAc(b1-4)GlcNAc6S
# Procedure, shortened: as §1
# [28] = target: Neu5Ac(a2-6)GlcNAc(b1-4)GlcNAc
# Procedure, shortened: as §1
# [29] = target: Neu5Ac(a2-6)GlcNAc(b1-4)GlcNAc(b1-4)GlcNAc
# Procedure, shortened: as §1
binder,measurement,setting,value
Blon2355mut (Bifidobacterium longum) (protein) MVQEPTLEWHVIPEPTNVEPLVGTCSLPLSGTVVEQRGADDAEAVFARQLVDDIKRVCGGRWQVASGEVQREVTLRTSPSLDDWSYVLEVSPDGVVITGSGFEGVRDGVQTLRQIIRQIGLTIPCMVIRDRPAFSTRGYYLDVTRGRVPSMAWLKSWVDRLCFYKYNQFQLYIEHTFQFNGLSEVWRGADPLTSSDILELDSYCAARGIELVPSVSTFGHHYTALRTRQLRDLGEFPEDADRPFSLIERMTHHTLNITDERSYEFSTSLIDELMPLFRSRKFNICANETFDLGKGRSKQESAKRGVGAMYADFVERLCRHVDDRGHDVMVWADVALEHPEIIDTLPKNITWLNWQYEPNVDDGTTAALADAGATQMVCPAVWCWNALIPRIDDAWNNITRMARHGRAHDVSGMLVTDWGDFGHVNDPRMSVPGMIFGAQQSWNPDAELSEVDMLSRISTIEYGDHTGSVVGALRGASAKGGFSWSDLVTYLELDDGRGGCNTEIVRVMGCLEAYRNDLPQSGQARLADARVSMLRTLRDSILAGRELNGKLDDAAKDITQLLRVAGDPSSAAVWSLAIDGQRLLNRVGLALLAAHGVVRQDEAGIDAAKLADELECWTEQYSRLWHEVSRQSELARIQHVVWRAADVLRSI,glycan array binding signal (z-score),[1],0.424
same,glycan array binding signal (z-score),[2],-0.297
same,glycan array binding signal (z-score),[3],0.442
same,glycan array binding signal (z-score),[4],-0.305
same,glycan array binding signal (z-score),[5],-0.87
same,glycan array binding signal (z-score),[6],-0.811
same,glycan array binding signal (z-score),[7],0.143
same,glycan array binding signal (z-score),[8],0.368
same,glycan array binding signal (z-score),[9],-0.287
same,glycan array binding signal (z-score),[10],-0.656
same,glycan array binding signal (z-score),[11],-0.183
same,glycan array binding signal (z-score),[12],0.018
same,glycan array binding signal (z-score),[13],2.02
same,glycan array binding signal (z-score),[14],0.125
same,glycan array binding signal (z-score),[15],0.691
same,glycan array binding signal (z-score),[16],-0.221
same,glycan array binding signal (z-score),[17],-0.353
same,glycan array binding signal (z-score),[18],0.2
same,glycan array binding signal (z-score),[19],-0.399
same,glycan array binding signal (z-score),[20],-0.406
same,glycan array binding signal (z-score),[21],0.051
same,glycan array binding signal (z-score),[22],0.159
same,glycan array binding signal (z-score),[23],-1.08
same,glycan array binding signal (z-score),[24],0.449
same,glycan array binding signal (z-score),[25],-1.3
same,glycan array binding signal (z-score),Neu5Ac(a2-6)GalNAc,0.95
same,glycan array binding signal (z-score),[26],-1
same,glycan array binding signal (z-score),[27],-0.126
same,glycan array binding signal (z-score),[28],-0.8
same,glycan array binding signal (z-score),[29],-0.932

# Quoted from above for reference:
binder,measurement,setting,value
Blon2355mut (Bifidobacterium longum) (protein) MVQEPTLEWHVIPEPTNVEPLVGTCSLPLSGTVVEQRGADDAEAVFARQLVDDIKRVCGGRWQVASGEVQREVTLRTSPSLDDWSYVLEVSPDGVVITGSGFEGVRDGVQTLRQIIRQIGLTIPCMVIRDRPAFSTRGYYLDVTRGRVPSMAWLKSWVDRLCFYKYNQFQLYIEHTFQFNGLSEVWRGADPLTSSDILELDSYCAARGIELVPSVSTFGHHYTALRTRQLRDLGEFPEDADRPFSLIERMTHHTLNITDERSYEFSTSLIDELMPLFRSRKFNICANETFDLGKGRSKQESAKRGVGAMYADFVERLCRHVDDRGHDVMVWADVALEHPEIIDTLPKNITWLNWQYEPNVDDGTTAALADAGATQMVCPAVWCWNALIPRIDDAWNNITRMARHGRAHDVSGMLVTDWGDFGHVNDPRMSVPGMIFGAQQSWNPDAELSEVDMLSRISTIEYGDHTGSVVGALRGASAKGGFSWSDLVTYLELDDGRGGCNTEIVRVMGCLEAYRNDLPQSGQARLADARVSMLRTLRDSILAGRELNGKLDDAAKDITQLLRVAGDPSSAAVWSLAIDGQRLLNRVGLALLAAHGVVRQDEAGIDAAKLADELECWTEQYSRLWHEVSRQSELARIQHVVWRAADVLRSI,glycan array binding signal (z-score),[18],0.2
same,glycan array binding signal (z-score),[19],-0.399
